Laboratory results from US20210322511A1 (Harvard, published 2021).
No constants are given. Whether binding was seen depends on the method and setting. Some binding calls cover weakened binding; strength is not graded here.

The chains behind the UniProt entries cited, without tags or fusion partners. Where a name states a change or a piece, a line headed by the entry shows the natural chain unless it says otherwise.
UniProt P07988: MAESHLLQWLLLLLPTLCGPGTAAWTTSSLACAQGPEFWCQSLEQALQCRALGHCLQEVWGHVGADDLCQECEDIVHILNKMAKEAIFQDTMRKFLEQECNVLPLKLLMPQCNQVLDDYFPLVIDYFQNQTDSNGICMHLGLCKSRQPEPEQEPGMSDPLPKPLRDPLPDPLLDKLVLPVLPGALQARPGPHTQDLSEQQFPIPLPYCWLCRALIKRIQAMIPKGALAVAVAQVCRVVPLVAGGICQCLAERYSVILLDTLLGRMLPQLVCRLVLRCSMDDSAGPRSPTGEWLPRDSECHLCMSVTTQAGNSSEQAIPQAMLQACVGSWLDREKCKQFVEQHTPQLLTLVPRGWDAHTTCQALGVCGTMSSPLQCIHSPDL

Target: purified human proSP-B (secreted from HEK293 cells, HALO tag removed) (human) (UniProt P07988)
Test: SEC without liposomes

purified human proSP-B (secreted from HEK293 cells, HALO tag removed) (from UniProt P07988 24-381)
binding: binds
